Drawing on PubChem BioAssay AID1273 (Columbia University Molecular Screening Center, 2008), this text covers normalized cell count for 75 compounds.

The other results are listed elsewhere or left out. The main result of the screen is listed elsewhere. These columns were measured beside it and carry no call. The list favours compounds with an active or inconclusive main result.

The assay can be described thus: inhibitors of insulin promoter-driven GFP, primary screen, imaging, TRM-6 cells (human fetal islet line), eGFP reporter, cell count (AID 1273;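 note: cells exposed to compound for 48 h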). The settings on record: measured here: cell count, toxicity, at 2 µM, reporter expression induced with tamoxifen.
For the compound `O=C(COc1ccc(Br)cc1)N/N=C1\SCC(=O)N1c1ccc(F)cc1`, the normalized cell count was found to be 109%.
For `COc1ccc(/C=C/C2=NN(C)C(=O)CC2)cc1` the value was 113%; for `O=C(c1cc(Cl)cc(Cl)c1)N1CCOCC1`, 91.5%; for `Cc1ccc(S(=O)(=O)NC(=O)c2ccc(-c3ccc(-c4ccccc4)cc3)o2)c(C)c1`, 80.3%.
For `CCOc1cc(S(=O)(=O)N2CCOCC2)ccc1F` the value was 129%; for `CCOC(=O)c1c(C)n(C(=O)c2ccco2)c(=O)n1C(=O)c1ccco1`, 142%.
Turning to `CCc1ccc(NC(=O)C(C)OC(=O)c2cc(=O)[nH]c3ccc(S(=O)(=O)Nc4ccc(F)cc4)cc23)cc1` (stereo not given), the normalized cell count stood at 117%.
For `CC(C)CNc1oc(-c2ccco2)nc1C#N` the value was 76.2%; for `CCOc1ccc(NC(=O)c2nn(-c3ccc(OC)cc3OC)c(=O)c3ccccc23)cc1`, 121%; for `CCOC(=O)CSc1nc(C)c(C(C)=O)cc1C#N`, 141%.
For `O=C(Nc1nnc(C2CC2)s1)c1ccc(Cl)c(S(=O)(=O)N2CCc3ccccc3C2)c1` the value was 121%; for `CCSc1nc2ccccc2n1C(=O)Oc1ccccc1`, 110%.
For `COc1cccc(C(=O)N2CCOCC2)c1` the value was 81.8%; for `Nc1cc2c(cc1C(=O)c1ccc(Cl)cc1)OCCO2`, 144%.
Regarding `Cc1nccn1-c1ccc(C(F)(F)F)cc1[N+](=O)[O-]`, the normalized cell count was found to be 84.3%.
For `O=C1CCC/C1=C/Nc1ccc(Cl)cc1` the value was 90.2%.
For `CN(C)c1ccnc(SCc2ccccc2Cl)c1C#N` the value was 101%.
For `CCC(CC)C(=O)OCC(=O)Nc1cc(OC)c([N+](=O)[O-])cc1C` the value was 122%.
Compound `CCCc1nn(CCc2ccccn2)c(N)c1CC` registered a normalized cell count of 127%.
For `C[N+]1(CCC(=O)c2ccccc2)CCCCC1` the value was 62.5%; for `CCC(C)N(CC(=O)Nc1cccc(C)c1C)C(=O)CCl` (stereo not given), 0.72%.
For `O=c1c2ccccc2ncn1Cc1ccc(Cl)cc1` the value was 162%.
Compound `CC(C)(C)c1nnc(NC(=O)CN2C(=O)C3C4C=CC(C4)C3C2=O)s1` (stereo not given) had a normalized cell count of 135%.
For `O=C(O)CCCC(=O)Nc1ccc(N=Nc2ccccc2)cc1` the value was 85.6%; for `Cc1ccc(NC(=O)c2ccnc(C(C)(C)C)c2)cc1`, 95.2%.
For `COc1ccc(NC(=O)N2CCN(c3cccc(C(F)(F)F)c3)CC2)cc1` the value was 18.6%.
`Cc1c(-c2cc[n+]([O-])cc2)oc2ccc(Br)cc2c1=O` had a normalized cell count of 83.3%.
The compound `CC(C)Nc1ncnc2ccc(Br)cc12` returned a normalized cell count of 73.7%.
For `COC(=O)c1c(-c2ccc(OC)c(OC)c2)csc1N` the value was 126%; for `Cc1cc(NC(=O)COc2ccc(N(C)S(=O)(=O)c3ccccc3)cc2)no1`, 79.1%.
For `CCOc1ccc(NC(=O)CCn2cccc2)cc1` the value was 97.8%; for `COc1ccc(-c2nnc(SCc3ccccc3F)o2)cc1`, 61.1%; for `O=C(CNc1ccc(Oc2ccccc2)cc1)N1CCOCC1`, 111%.
For `CCc1cc2c(=O)[nH]c(N3CCOCC3)nc2s1` the value was 123%.
Regarding `Cc1ccc(S(=O)(=O)N2C(=O)C(C)SC2=Nc2ccccc2)cc1` (stereo not given), the normalized cell count was 95.3%.
For `CSc1nc(-c2ccc(Cl)cc2Cl)[nH]c(=O)c1C#N` the value was 74.6%; for `Cc1cccc(C)c1NC(=O)COC(=O)COc1ccc2c(C)cc(=O)oc2c1`, 123%.
For `COc1ccc2cc(C#N)c(NC(C)C)nc2c1` the value was 136%; for `NC(=O)CSC1=Nc2ccccc2C2=NC(c3ccccc3)C(=O)N12` (stereo not given), 127%.
On to `CCN(CC)Cc1c(O)ccc2c([N+](=O)[O-])c(C)n(-c3ccc(OC)cc3)c12`, for which the normalized cell count was determined as 127%.
Take `O=C(CN1CCN(CC(=O)Nc2ccccc2C(F)(F)F)CC1)Nc1ccccc1F`: the normalized cell count was 117%.
For `O=c1oc2ccccc2c(Nc2ccc3ccccc3c2)c1[N+](=O)[O-]` the value was 90.4%; for `OC1C2(Cc3ccccc3)CN3CCN(C2)CC1(Cc1ccccc1)C3` (stereo not given), 56.3%.
As to `O=C(Cn1c(=O)oc2ccccc21)c1ccccc1`, the normalized cell count stood at 52.5%.
With `COC(=O)c1ccc(C2C(C#N)=C(N)Oc3cc(C)n(C)c(=O)c32)cc1` (stereo not given), the normalized cell count worked out at 44.4%.
For `O=C(NC(Cc1c[nH]c2ccccc12)C(=O)O)/C(=C/c1ccc2c(c1)OCO2)NC(=O)c1ccccc1` (stereo not given) the value was 55.8%; for `c1ccc(-c2nnc(CN3CCC4(CC3)OCCO4)o2)cc1`, 111%; for `COC(=O)c1ccccc1N1C(=O)C2C(C1=O)[C@H]1C=C[C@@H]2C1` (stereo not given in full), 77.6%.
For `COc1ccc(C)cc1S(=O)(=O)N1CCCC(C(=O)NCC2CCCO2)C1` (stereo not given) the value was 96.6%.
For `CCC(c1nc2ccccc2c(=O)n1CCN1CCOCC1)N1C(=O)c2ccccc2C1=O` (stereo not given) the value was 34.9%.
On to `c1ccc(OCCOCCSc2ncccn2)cc1`, for which the normalized cell count worked out at 121%.
`O=C(O)CCC(=O)Nc1ccc(C(=O)OC2CCCCC2)cc1` displayed a normalized cell count of 118%.
For `Cc1csc(=N)n1-c1ccc(Cl)cc1` the value was 94%; for `c1csc(C2=NNC(=NC3CCCCC3)SC2)c1`, 48.1%.
For `CCN(CC)C(=O)C(=O)c1cccn1-c1ccccc1C#N` the value was 30.4%.
Compound `Cc1cc(C)c(S(C)(=O)=O)c(N(C)N)n1` came in with a normalized cell count of 67.3%.
For `C=CCn1c2ccccc2n2nc(C)c(=O)nc12` the value was 84.8%; for `CCCCc1nnc(NC(=O)C2CCCO2)s1` (stereo not given), 117%; for `CCOC(=O)c1cc(=O)n2nc(-c3ccccc3F)nc2s1`, 82.1%.
For `CCn1c(O)c(/C=N/N=C/c2ccccc2)c2ccc(C3=NNC(=O)CC3)cc21` the value was 103%.
Compound `C=CCSc1nc(NC)c2sccc2n1` had a normalized cell count of 150%.
`CN(CCc1ccccn1)c1ncnc2[nH]ncc12` showed a normalized cell count of 78%.
Consider `CCOC(=O)c1[nH]c(C)c(C(=O)c2cc(F)ccc2F)c1C`, for which the normalized cell count was 14.8%.
For `Cc1snc(S(=O)(=O)/C(C#N)=N/Nc2ccc(C(F)(F)F)cc2)c1C#N` the value was 61.5%; for `O=C(NCc1ccccc1Cl)C1CCN(C(=O)c2sccc2-n2cccc2)CC1`, 53.4%.
For `Cc1ccc(S(=O)(=O)n2c3ccc(Cl)cc3c3nc(C)sc32)cc1` the value was 154%.
For `Cc1nn2c(Nc3ccccc3)c3c(nc2c1-c1ccccc1)CCC3` the value was 224%; for `Nc1nc(SCC(=O)NC2CCCc3ccccc32)n[nH]1` (stereo not given), 152%.
Take `CCc1nnc(SCC(=O)Nc2ccc3c(c2)OCO3)o1`: the normalized cell count was 72.4%.
For `Cc1nn(-c2ccccc2)c(Cl)c1/C=N/Nc1nc2ccccc2n1C` the value was 128%; for `Cc1noc(N)c1C(=O)Nc1ccc(F)c(Cl)c1`, 78%.
For `CCCCOC(=O)CSc1n[nH]c(=O)[nH]c1=O` the value was 80%; for `COc1ccc2cc3[n+](cc2c1OC)CCc1cc2c(cc1-3)OCO2`, 129%; for `O=C(NC1(C(F)(F)F)OCCO1)c1ccc(F)cc1`, 155%.
The compound `Cc1ccc(C(=O)C2=C(O)C(=O)N(c3ncccn3)C2c2ccc(Cl)cc2)o1` (stereo not given) came in with a normalized cell count of 122%.
